## Library screen at single concentrations

The values are deposited in ChEMBL (CHEMBL3988442, “University of Dundee, Small-Polar-MMV Screening Library” (2021)).

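Assay of Toxoplasma gondii numbers, read through their beta-galactosidase reporter with a colour substrate. Compounds at 50 µM. Higher reads as fewer parasites (inferred from which compounds were picked for retests). Of about 18,000 compounds tested this way, about 170 (0.94%) reached 50% or more in at least one test.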

Each number is a percent effect as filed. The record does not define 0% and 100%; most values in the screen are far below 50% and negative numbers occur (in some assays of this library far below -100). Compounds were drawn at random from those tested, without regard to their results.

| # | Compound | percent effect |
|---|---|---|
| 1 | `Cn1cc(C(O)C(=O)OCc2cccc(F)c2)cn1` (stereo not drawn) | -3.34% |
| 2 | `CSCC(=O)N1CCCCCC1` | -5.22% |
| 3 | `CC(C1CCN(Cc2c[nH]cn2)CC1)N1CCCC1` (stereo not drawn) | 21.18% |
| 4 | `COc1ccnc(C(=O)N(C)C(C)c2cccnc2)c1` (stereo not drawn) | -8.35% |
| 5 | `O=C(CCCc1cn[nH]c1)N1CCc2ccccc2C1` | -9.132% |
| 6 | `c1coc(C2CCCCN2)c1` (stereo not drawn) | -0.3985% |
| 7 | `NCc1ccc(C(=O)NCCCc2ncc[nH]2)cc1` | -1.788% |
| 8 | `Cc1ccsc1CN(C)C(=O)Cn1cccnc1=O` | -6.908% |
| 9 | `COc1cc(OC)cc(C2(F)CCNC2)c1` (stereo not drawn) | -7.168% |
| 10 | `CCN1CC(=O)NC1c1ccc(OC)cc1` (stereo not drawn) | -9.16% |
| 11 | `NC(=O)CN1CCN(Cc2ccc3c(c2)CCO3)CC1` | -35.08% |
| 12 | `OCC(Nc1ncccc1Br)c1ccccc1` (stereo not drawn) | 0.5674% |
| 13 | `CC(O)CCc1ccc(O)cc1` (stereo not drawn) | -4.294% |
| 14 | `COCCNC(=O)N(C)CCN1CCCC1=O` | 7.676% |
| 15 | `O=C(CC1COc2ccccc2O1)N1CCOCC1` (stereo not drawn) | -7.206% |
| 16 | `O=C1NCC(C(=O)N2CCCCCC2)N1` (stereo not drawn) | 4.441% |
| 17 | `O=S1(=O)CCNc2ccccc21` | -9.023% |
| 18 | `NC1CCCOc2cc(F)ccc21` (stereo not drawn) | -44.6% |
| 19 | `NC(=O)NCC1CCCCN1` (stereo not drawn) | -3.873% |
| 20 | `CC(NS(=O)(=O)N(C)C)c1ccccc1` (stereo not drawn) | -35.13% |
| 21 | `CCN1CCN(Cc2nc(C3CC3)no2)CC1` | 5.535% |
| 22 | `CCNC(=O)C(C)NS(=O)(=O)c1ccc(OC)cc1` (stereo not drawn) | -10.16% |
| 23 | `NCC(CO)Cc1ccc(Br)cc1` (stereo not drawn) | 0.572% |
| 24 | `CN1CCC(Oc2ccc(C(N)=O)cn2)CC1` | -22.69% |
| 25 | `O=c1ccc2ccccc2n1CCCn1cnnn1` | 0.6692% |
| 26 | `COCCc1noc(Cn2cc(I)cn2)n1` | 7.929% |
| 27 | `CS(=O)(=O)CCOCCN` | -18.24% |
| 28 | `COCCOC1CCN(c2cc(C)ccn2)CC1` | 2.09% |
| 29 | `CN(C)C(=O)Nc1cc2c(cc1Br)OCCO2` | -3.493% |
| 30 | `Fc1cccnc1N1CCNCC1` | -1.527% |
| 31 | `c1ccc(CNC2CCSC2)nc1` (stereo not drawn) | 5.666% |
| 32 | `CCOc1ccc(Cl)cc1CCNS(=O)(=O)N(C)C` | 8.131% |
| 33 | `CCOc1ccccc1OCC1CNCCO1` (stereo not drawn) | -6.636% |
| 34 | `NC(=O)CN1CCn2cccc2C1c1ccccc1` (stereo not drawn) | -16.03% |
| 35 | `CC(C)c1nnc2n1CC(N)CC2` (stereo not drawn) | 3.126% |
| 36 | `NC1CCCN(S(=O)(=O)c2ccc(Br)cc2)C1` (stereo not drawn) | -3.246% |
| 37 | `O=C(CSc1ccccc1)NCCCN1CCOCC1` | 1.254% |
| 38 | `COCCC(=O)Nc1ncn(Cc2ccc(Cl)cc2)n1` | -9.469% |
| 39 | `Cc1ccc(CN(C)C(=O)CO)c(C)c1` | -13.77% |
| 40 | `COc1ccc(OC)c(N2C(=O)CCC2=O)c1` | -4.608% |
| 41 | `COC(=O)N1CCN(c2ccncc2N)CC1` | -6.97% |
| 42 | `CNC1CCN(C(=O)Cc2cccs2)C1` (stereo not drawn) | -7.652% |
| 43 | `CCOc1cc(CN2CCCN(C)CC2)ccc1O` | -13.54% |
| 44 | `CCN(CC(C)(C)O)C(=O)c1ccc(COC)cc1` | 0.4728% |
| 45 | `CCO[C@H]1CN(C(=O)c2ccccc2SC)C[C@@H]1O` | -2.878% |
| 46 | `O=S(=O)(NC1CCCC1)C1CNC1` | -1.877% |
| 47 | `NC(=O)C1CCN(CCOc2ccc(Br)cc2)C1` (stereo not drawn) | -25.25% |
| 48 | `CC(C)Oc1cc(N2C[C@@H](C)[C@@](C)(O)C2)nc(N)n1` | 0.9318% |
| 49 | `C=C(Br)CNC(=O)c1cccc(CN2CCCC2)c1` | -1.863% |
| 50 | `CCOCCC1(CN)CCC1` | 17.53% |
| 51 | `CC1CN(CCS(C)(=O)=O)CCN1c1nccs1` (stereo not drawn) | -18.22% |
| 52 | `Cn1ccc(CNC(=O)NCC2CC2)c1` | 7.499% |
| 53 | `CCc1nnc(CN)o1` | -2.137% |
| 54 | `CCn1cc(S(=O)(=O)N2CCC(N)CC2)cn1` | 1.846% |
| 55 | `Cc1cc(CN(C)C(=O)CSCCN2CCCC2)on1` | 7.521% |
| 56 | `CC(=O)N(C1CC1)C(C)c1ccccn1` (stereo not drawn) | 0.5428% |
| 57 | `COCCN(CC(=O)NCc1ccco1)C(C)(C)CO` | -8.288% |
| 58 | `N[C@H]1CN(C(=O)c2c(F)cccc2F)C[C@@H]1C1CC1` | 12.89% |
| 59 | `O=C1c2ccccc2OCC1CN1CCOCC1` (stereo not drawn) | 7.204% |
| 60 | `CCn1cc(CN2CCN(C3CCOCC3)CC2)cn1` | -3.162% |

5 of the entries, repeated:

Compound	percent effect
CCO[C@H]1CN(C(=O)c2ccccc2SC)C[C@@H]1O	-2.878%
CN(C)C(=O)Nc1cc2c(cc1Br)OCCO2	-3.493%
C=C(Br)CNC(=O)c1cccc(CN2CCCC2)c1	-1.863%
O=C(CCCc1cn[nH]c1)N1CCc2ccccc2C1	-9.132%
CCOc1ccc(Cl)cc1CCNS(=O)(=O)N(C)C	8.131%